Data from article PMC11768370, “Etodolac Single Dose Metabolic Profile Elucidation: Pharmacokinetics and Adverse Events in Healthy Volunteers” (Pharmaceuticals, 2025).

System: plasma metabolites
Test: Untargeted plasma metabolomic profile pre-dose (T0) vs post-dose (Tmax), UPLC-QToF
Format: in vivo, human
Details: healthy volunteers, single dose 500 mg
Description: Samples were collected at two times: (i) baseline samples (time 0 h), termed the pre-dose group, and (ii) samples at maximum drug concentration (Cmax), termed the post-dose group. Samples were randomized, and 25 μL of each was collected to form a pooled sample for quality control (QC). An aliquot of plasma (200 μL) was extracted by adding cold methanol (400 μL) for protein precipitation. The samples were then vortexed for 30 s and centrifuged at 12,879× g for 10 min at 4 °C. Finally, the supernatant (400 μL) was collected and dried over a stream of nitrogen gas (N2). Samples were resuspended with 200 µL of acetonitrile (ACN)/water (H2O) (1:1 v/v). Sample extraction and analysis were randomized to reduce instrumental and biological bias. QC samples were analyzed every 10 samples to check for variations in extraction and system stability.
The analysis was adapted and performed on an ACQUITY® FTN H Class (Waters, Newcastle, UK) liquid chromatography (UPLC) coupled to a XEVO-G2XS (QToF) quadrupole time-of-flight mass spectrometer (UPLC-QToF) (Waters, Manchester, UK) equipped with an electrospray ionization (ESI) source operated in the positive and negative ionization mode, separately. An ACQUITY UPLC ® CSH C18 column (2.1 mm × 100 mm × 1.7 µm, Waters, Newcastle, UK) was employed as a stationary phase. The mass spectrometer was operated in MSE mode (DIA, data independent analysis) with an m/z range of 50–1200 Da and an acquisition time of 0.5 s per scan. MSE analysis was operated at 6 eV for low collision energy and a ramp of 20–50 eV for high collision energy. See Supplementary Materials and Methods for more information on metabolomic analysis.
The LC-MS raw data files were processed using Progenesis™ QI v2.4 software (Non-linear Dynamics, Newcastle, UK), which allows adduct selection, peak alignment, deconvolution, and compound annotation via MSE experiments. Progenesis QI generates an intensity table of features labeled according to their nominal masses and retention times as a function of intensity. […]

CCc1cccc2c3c([nH]c12)C(CC)(CC(=O)O)OCC3 (stereo not drawn) [Etodolac]
palmitoylcarnitine abundance in the blood after administration: decreased in abundance
flavin mononucleotide relative abundance post-dose (plasma): increased relative abundance
tryptophol relative abundance change between T0 and Tmax (plasma): more than fourfold increase
